From paper doi:10.1101/2020.05.18.102301
No constants are given. Whether binding was seen depends on the method and setting. Binding can be weak; no strength is given.

Legend:
Assay in all cases: two-hybrid
[1] = molecular target: SlRNRL1 (ribonucleotide reductase large subunit 1) (tomato (S. lycopersicum))
[2] = molecular target: SlRNRL2 (ribonucleotide reductase large subunit 2) (tomato (S. lycopersicum))
[3] = molecular target: SlRNR2 (a small subunit of the RNR complex) (tomato (S. lycopersicum))

Substance	binding [1]	binding [2]	binding [3]
SlRNR2 (a small subunit of the RNR complex) (from UniProt A0A3Q7EHT3)	binds	binds	–
SlRNRL1 (ribonucleotide reductase large subunit 1) (from UniProt A0A3Q7GRB4)	–	–	binds
SlRNRL2 (ribonucleotide reductase large subunit 2) (from UniProt A0A3Q7G4T7)	–	–	binds
